The target in the test is matrix metalloproteinase 3 (MMP3), as in the co-immunoprecipitation of Fig. 4G (UniProt P08254). The test can be described thus: co-IP; cells lysed in chilled RIPA buffer with PMSF; supernatant incubated with 2 μg of the appropriate antibody and 30 μl protein A/G-agarose for 24 h at 4 °C; 4 washes with cold RIPA buffer; Western blot. (In general: A western blot detects proteins with antibodies after separation by electrophoresis.)

The chains behind the UniProt entries cited, without tags or fusion partners. Where a name states a change or a piece, a line headed by the entry shows the natural chain unless it says otherwise.
UniProt P08254: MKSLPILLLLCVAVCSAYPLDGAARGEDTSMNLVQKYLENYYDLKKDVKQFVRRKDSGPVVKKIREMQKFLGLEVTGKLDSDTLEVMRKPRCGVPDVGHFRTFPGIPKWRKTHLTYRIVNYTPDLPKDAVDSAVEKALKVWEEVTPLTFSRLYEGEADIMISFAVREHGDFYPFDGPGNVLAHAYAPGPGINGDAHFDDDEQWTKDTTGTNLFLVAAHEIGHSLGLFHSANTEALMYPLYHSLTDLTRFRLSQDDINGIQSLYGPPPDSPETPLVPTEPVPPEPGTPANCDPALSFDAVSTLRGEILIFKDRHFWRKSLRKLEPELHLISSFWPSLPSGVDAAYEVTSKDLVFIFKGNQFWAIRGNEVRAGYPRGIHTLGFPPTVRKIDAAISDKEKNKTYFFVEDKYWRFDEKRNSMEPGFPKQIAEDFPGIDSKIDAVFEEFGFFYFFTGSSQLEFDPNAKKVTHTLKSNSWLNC
UniProt O15205: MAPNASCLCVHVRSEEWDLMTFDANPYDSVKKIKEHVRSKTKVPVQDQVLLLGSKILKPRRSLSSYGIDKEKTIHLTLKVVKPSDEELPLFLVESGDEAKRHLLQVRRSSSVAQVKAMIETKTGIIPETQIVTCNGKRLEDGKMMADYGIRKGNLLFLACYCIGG

Consider one substance from article PMC12828796.

These are yes or no findings as the source states them, for the method shown. In cells and extracts the contact can be indirect. A result given as binding can be weak or reduced; the word gives no strength.

For “ubiquitin D (UBD), as in the co-immunoprecipitation of Fig. 4G (from UniProt O15205 1-165)”, the binding result is listed as “binds”.
